Measurements taken from article PMC7819943, “Rice protein-binding microarrays: a tool to detect cis-acting elements near promoter regions in rice”.
This is one part of the list.

The sequences below were run against T1, OsSMF1 (Oryza sativa, UniProt Q6ZLB0 1-436) (assay: protein-binding microarray (RPBM); PBS, 2% BSA, 51.3 ng/ul salmon testes DNA, 50 uM zinc acetate, 200 nM TF, 25 C, 1 h; high values mean tight binding). Details: protein: recombinant; tags: N-terminal polyhistidine and DsRed monomer fusion (pET32a); chain copies: 2; label: CyDye5-dUTP incorporated in the synthesized complementary strand; 3' TTTTT single-stranded linker to array surface; dsDNA, one strand shown.
T1 sequence: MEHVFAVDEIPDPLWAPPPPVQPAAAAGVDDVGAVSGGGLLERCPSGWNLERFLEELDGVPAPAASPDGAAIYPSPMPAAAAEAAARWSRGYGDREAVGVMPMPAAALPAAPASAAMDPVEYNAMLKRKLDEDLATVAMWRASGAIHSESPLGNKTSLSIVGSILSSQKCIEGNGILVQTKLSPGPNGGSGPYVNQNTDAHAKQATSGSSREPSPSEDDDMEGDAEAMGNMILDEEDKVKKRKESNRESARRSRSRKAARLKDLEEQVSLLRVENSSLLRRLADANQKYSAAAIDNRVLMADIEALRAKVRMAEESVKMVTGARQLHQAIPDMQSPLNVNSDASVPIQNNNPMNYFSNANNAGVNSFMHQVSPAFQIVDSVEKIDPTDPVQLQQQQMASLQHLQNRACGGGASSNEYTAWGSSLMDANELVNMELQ
How it was run: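 Binding signal is defined as the fluorescence intensity of each feature in arbitrary units, read on an Axon 4000B scanner. Transcription factors with N-terminal polyhistidine and DsRed fusions came from E. coli BL21-CodonPlus and were purified on Ni–NTA. They were incubated at 200 nM for 1 h at 25 °C on a custom Agilent array that had been made double-stranded with Cy5-dUTP, with 50 µM zinc acetate present, and the array was washed.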

Sequence | binding signal
TCTTTTGGTAAACATCTATATTTCAAGTGCAACAAATTAACGGAGTCACCTAGTGCAG | 32300 fluorescence intensity (a.u.)
TTTTGCGCCACAATCCACGTTGGTTGTTGAGGTTTATATACGGAGTCACCTAGTGCAG | 3190 fluorescence intensity (a.u.)
ATACTTCCATTTGTGCCATACATTTTGTCATTTCGACCTGCGGAGTCACCTAGTGCAG | 3330 fluorescence intensity (a.u.)
TTCCCCAAACCCCAGAGTTTGAGTATGCGTCAAATGGTGGCGGAGTCACCTAGTGCAG | 4090 fluorescence intensity (a.u.)
GCTCAAATACAGGAAAGTCAGTCCATCCCGCACCAGGCCCCGGAGTCACCTAGTGCAG | 3350 fluorescence intensity (a.u.)
CTTCGATCACCAAATCGCCACATCAATTACAACTTATAGTCGGAGTCACCTAGTGCAG | 3180 fluorescence intensity (a.u.)
CGTAAAAGGACAGGTTACAAACAAGTGGTGGCAATCCTCGCGGAGTCACCTAGTGCAG | 3320 fluorescence intensity (a.u.)
CACCATCCTGAACTGAATTGCCTGCACCTAGCCACATCATCGGAGTCACCTAGTGCAG | 4710 fluorescence intensity (a.u.)
CGGCCGTTGGGCAGCGGCGGTAGGTAGAACCCTGACGACGCGGAGTCACCTAGTGCAG | 3990 fluorescence intensity (a.u.)
TTCTTCCTCTCCAAGAAGACAAGTCACCCTTCCCCACGCCCGGAGTCACCTAGTGCAG | 24700 fluorescence intensity (a.u.)
ATCAGCTGACCATTGTGGCTACCGTCTTCCCGCAGCTCATCGGAGTCACCTAGTGCAG | 3610 fluorescence intensity (a.u.)
CTCGAGCTTGACTCTGGCGGCAGTGGCGGGCGGCGTGGCCCGGAGTCACCTAGTGCAG | 3220 fluorescence intensity (a.u.)
CCACGTGTCAGCATTGCCACATCAGCTTCCTCTCTCTTTTCGGAGTCACCTAGTGCAG | 24100 fluorescence intensity (a.u.)
TTGCTGCCACGTCGGGCCACCGGCCTATTGAGTCACCGAACGGAGTCACCTAGTGCAG | 14900 fluorescence intensity (a.u.)
GGGGAGGAGGACGAGTAACAGACGTGGTGGCCGCCGAGGCCGGAGTCACCTAGTGCAG | 3490 fluorescence intensity (a.u.)
GCTGCTTCCCTTCCTCGCCTACGCCGCCGTCCATCTCGCCCGGAGTCACCTAGTGCAG | 3680 fluorescence intensity (a.u.)
ATAATTTGAGCAGGTCAATCTAAACACGCTGTCAAGGACTCGGAGTCACCTAGTGCAG | 3530 fluorescence intensity (a.u.)
GTAGAATTATAAAATATATTGTGTACACAATAGGTTTATGCGGAGTCACCTAGTGCAG | 3330 fluorescence intensity (a.u.)
GGCCCCTCTCCGTCGGCGGCGTCAGCAGTGGGCTGCAGCACGGAGTCACCTAGTGCAG | 20300 fluorescence intensity (a.u.)
GTGGTGTGAAGGAATAAGTCCATTTTGCCTCCCTCATCTCCGGAGTCACCTAGTGCAG | 11200 fluorescence intensity (a.u.)
TAGCCACATTATTTTGCTGAATGATACTACAACTGGCACCCGGAGTCACCTAGTGCAG | 5070 fluorescence intensity (a.u.)
CTTCAAGAGGAAGTATATTATGCTTGTCATGCTCGTTCAACGGAGTCACCTAGTGCAG | 3140 fluorescence intensity (a.u.)
CCCGTCGTTCGGATCCGCCAACACCGCACCGCCGCAATCGCGGAGTCACCTAGTGCAG | 22600 fluorescence intensity (a.u.)
ACCCGGGGCGAGAGCAGAAGAAACGGATCTCTGTCTTTCTCGGAGTCACCTAGTGCAG | 32800 fluorescence intensity (a.u.)
TCAATTTGCATTCCGTGTCATGTAATTGCCTGATGTGAGTCGGAGTCACCTAGTGCAG | 5730 fluorescence intensity (a.u.)
CAGCGTCACGTGGCACCCGCACCGCCCGAAAACACCGTTGCGGAGTCACCTAGTGCAG | 5530 fluorescence intensity (a.u.)
CTAGCAGAAATGGTGATCGGGAGCAAATGTGGGTTGATGACGGAGTCACCTAGTGCAG | 3680 fluorescence intensity (a.u.)

Reformatted as labelled records: part of the list above
CTCGAGCTTGACTCTGGCGGCAGTGGCGGGCGGCGTGGCCCGGAGTCACCTAGTGCAG
  binding signal = 3220 fluorescence intensity (a.u.)
CCACGTGTCAGCATTGCCACATCAGCTTCCTCTCTCTTTTCGGAGTCACCTAGTGCAG
  binding signal = 24100 fluorescence intensity (a.u.)

The list goes on:

Sequence | binding signal
AACAGAGGCTAATAGCTCATCCCTGCATCATCATCATCATCGGAGTCACCTAGTGCAG | 4420 fluorescence intensity (a.u.)
GACTAGATTAATAGTAAACCACCTTAATAGTATGTCTACACGGAGTCACCTAGTGCAG | 4450 fluorescence intensity (a.u.)
TTGTAAGCTCAGCCTAGATAGAGTGAAGATATTTTATTGGCGGAGTCACCTAGTGCAG | 49700 fluorescence intensity (a.u.)
TGAGTTCTACTAACACACTACGCAGGGCTGCAAGTGTTAGCGGAGTCACCTAGTGCAG | 3350 fluorescence intensity (a.u.)
ACATCCGAGAGACTAGGCCGACAAATCACCACCGACACGTCGGAGTCACCTAGTGCAG | 5890 fluorescence intensity (a.u.)
TGCTACAAACCATGTGCAGGCATGCATGGATGACAGGCGGCGGAGTCACCTAGTGCAG | 3250 fluorescence intensity (a.u.)
ATCCTTGCTTTGCTGCTGCGTTGTTCATGATTCCCACCAACGGAGTCACCTAGTGCAG | 3430 fluorescence intensity (a.u.)
GAGGGAGGGAGGTGGAAGCGGAGGCGAGTGGGAGGGTGGGCGGAGTCACCTAGTGCAG | 6080 fluorescence intensity (a.u.)
ATCCATGCATGCATCCTCCACGTAGCTAGCCCTATACTCTCGGAGTCACCTAGTGCAG | 3890 fluorescence intensity (a.u.)
ATGGCGCGCCGCCACGTCACCCCGACTCGCCACGTCAGCACGGAGTCACCTAGTGCAG | 65500 fluorescence intensity (a.u.)
GTTGCAAACCTGACCCCGGCATCGCCAGCCTGACCTGCTGCGGAGTCACCTAGTGCAG | 3240 fluorescence intensity (a.u.)
TTTATATATATATATATATATATATATATGCCCATATGGTCGGAGTCACCTAGTGCAG | 24900 fluorescence intensity (a.u.)
TGATCCAGTAATACTCTGACACGCCTAGCAGGATGTTAGGCGGAGTCACCTAGTGCAG | 3190 fluorescence intensity (a.u.)
AAACCCGGAGAGAGTGGTGTTCGTGGACGTCACCCCATTTCGGAGTCACCTAGTGCAG | 4440 fluorescence intensity (a.u.)
TTCCAAAACCTATGAAATTCCTATGGAATGACACATTGCACGGAGTCACCTAGTGCAG | 3300 fluorescence intensity (a.u.)
TTGTAAGACGTGGATCTGTATGTCAACAATTGTCGTTTGTCGGAGTCACCTAGTGCAG | 6310 fluorescence intensity (a.u.)
GTTGAGGATAGCTTTGCTGGGTCACTTCTGGACATAGGTCCGGAGTCACCTAGTGCAG | 3410 fluorescence intensity (a.u.)
TCCTCCATAACAGTATCGCTACCCACGTTTGAGTGGTGCTCGGAGTCACCTAGTGCAG | 3410 fluorescence intensity (a.u.)
AGTTGGCGTGGATGGCCACGATTCTGGACCCGGGGTTGCCCGGAGTCACCTAGTGCAG | 3600 fluorescence intensity (a.u.)
TGCGCGATCCACAGGTAGTGGAGGGATTGGAGACACGTGTCGGAGTCACCTAGTGCAG | 5770 fluorescence intensity (a.u.)
GACTACAGATCTGCAGCATGAAATCCAAGACGTAATGTGTCGGAGTCACCTAGTGCAG | 3430 fluorescence intensity (a.u.)
AAGGGCCTACTTTCTCAAATTACCCCACGGGCATATTCACCGGAGTCACCTAGTGCAG | 33400 fluorescence intensity (a.u.)
ACTCAGTACAGTCCAGAAAGATCACCGGTATAATTATACACGGAGTCACCTAGTGCAG | 3150 fluorescence intensity (a.u.)
AGAAATAGGACGACGTCGATGACAGTGTCCAATCCCGGGACGGAGTCACCTAGTGCAG | 3790 fluorescence intensity (a.u.)
GCGACGGCGCTGGCCCGATGGATAGCAGGTGTGACGCGCCCGGAGTCACCTAGTGCAG | 3620 fluorescence intensity (a.u.)
ACACAGTAACACGTAAGGCCTCCTTGTATGGGCCTCAATCCGGAGTCACCTAGTGCAG | 4430 fluorescence intensity (a.u.)
AACGTCAAGTACTCACGTGGTCCACGAATATTTAAGCCTACGGAGTCACCTAGTGCAG | 4480 fluorescence intensity (a.u.)

Part of the list above, tab-delimited:
Sequence	binding signal
CAGCGTCACGTGGCACCCGCACCGCCCGAAAACACCGTTGCGGAGTCACCTAGTGCAG	5530 fluorescence intensity (a.u.)
CTAGCAGAAATGGTGATCGGGAGCAAATGTGGGTTGATGACGGAGTCACCTAGTGCAG	3680 fluorescence intensity (a.u.)
AACAGAGGCTAATAGCTCATCCCTGCATCATCATCATCATCGGAGTCACCTAGTGCAG	4420 fluorescence intensity (a.u.)
